Publication PMC7876461
Construct, isoform or probe ends are uncertain for at least one entry. Results from cells or extracts need not show a direct contact. For some of these results: A negative result means that nothing was seen under these conditions. For some of these results: A weaker result is weaker than the reference pair of the same experiment.

The chains behind the UniProt entries cited, without tags or fusion partners. Where a name states a change or a piece, a line headed by the entry shows the natural chain unless it says otherwise.
UniProt P19793: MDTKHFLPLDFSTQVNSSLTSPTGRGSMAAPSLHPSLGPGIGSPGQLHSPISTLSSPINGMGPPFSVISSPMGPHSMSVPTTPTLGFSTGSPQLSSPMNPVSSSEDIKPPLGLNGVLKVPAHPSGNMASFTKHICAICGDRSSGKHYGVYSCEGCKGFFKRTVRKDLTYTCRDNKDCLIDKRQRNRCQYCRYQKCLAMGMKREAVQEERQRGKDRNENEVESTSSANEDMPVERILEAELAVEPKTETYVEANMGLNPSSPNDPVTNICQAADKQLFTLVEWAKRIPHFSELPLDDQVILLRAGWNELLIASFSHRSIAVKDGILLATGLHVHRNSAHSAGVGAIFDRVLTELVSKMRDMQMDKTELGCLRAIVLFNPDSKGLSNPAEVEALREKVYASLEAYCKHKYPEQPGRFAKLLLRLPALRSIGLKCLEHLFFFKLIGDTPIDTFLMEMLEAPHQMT

Columns and labels:
[1] = molecular target: RXRA (Homo sapiens) (UniProt P19793); test: competition with a labelled probe; settings: LightShift EMSA binding buffer with poly(dI-dC), glycerol, NP-40, MgCl2 (stocks 1 ug/ul, 50%, 1%, 100 mM; final not stated), 10 ug nuclear extract, protein in an extract
[2] = molecular target: RXRA (Homo sapiens) (UniProt P19793); test: EMSA; settings: band diminished, legend: no interaction with mutant; LightShift EMSA binding buffer with poly(dI-dC), glycerol, NP-40, MgCl2 (stocks 1 ug/ul, 50%, 1%, 100 mM; final not stated), 10 ug nuclear extract; protein in an extract
[3] = molecular target: RXRA (Homo sapiens) (UniProt P19793); test: EMSA, shift-western; settings: LightShift EMSA binding buffer with poly(dI-dC), glycerol, NP-40, MgCl2 (stocks 1 ug/ul, 50%, 1%, 100 mM; final not stated), 10 ug nuclear extract; protein in an extract

**Q.** Does “GCCGGAGGAGGGGGCCCCGGACACACACACACACACACACCC (double strand) [HES1 mutant unlabeled competitor]” bind ([1]; unlabeled mutant (200-fold molar) vs biotin WT probe, band not changed)?
**A.** Result: no binding

**Q.** Does “GCCGGAGGAGGGGGCCCCGGACACACACACACACACACACCC (double strand) [HES1 promoter mutant probe (c.-1279_-1278insAC)]” bind [2]?
**A.** Result: binds more weakly

**Q.** Does “GCCGGAGGAGGGGGCCCCGGACACACACACACACACACCC (double strand) [HES1 WT unlabeled competitor]” bind ([1]; 200-fold molar unlabeled vs biotin WT probe, band diminished)?
**A.** Result: binds

**Q.** Does “GCCGGAGGAGGGGGCCCCGGACACACACACACACACACCC (double strand) [HES1 promoter WT probe (-1317 to -1278)]” bind [3]?
**A.** Result: binds
